Source: PMC10517005, “A conserved membrane protein negatively regulates Mce1 complexes in mycobacteria” (Nature Communications, 2023)
These are yes or no findings as the source states them, for the method shown. In cells and extracts the contact can be indirect. Binding can be weak; no strength is given. For part of these data: Sequences can lack the tags named with a protein.

Sequences of proteins named here, by UniProt entry; tags and fusion partners are left off. A change or cut given only in a name is not applied to a line headed by its entry.
UniProt A0QNR1: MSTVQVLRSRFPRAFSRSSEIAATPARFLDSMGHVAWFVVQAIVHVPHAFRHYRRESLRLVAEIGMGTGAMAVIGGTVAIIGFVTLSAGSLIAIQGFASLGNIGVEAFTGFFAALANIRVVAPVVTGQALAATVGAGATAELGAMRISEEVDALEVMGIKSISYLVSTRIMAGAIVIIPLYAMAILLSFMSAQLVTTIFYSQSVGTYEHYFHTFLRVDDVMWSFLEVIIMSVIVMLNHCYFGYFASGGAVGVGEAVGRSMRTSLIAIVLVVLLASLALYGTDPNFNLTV

B1: MSMEG_0959-FLAG (protein, UniProt A0QR24 1-164)
chain: MSGVPDASGAAPAGEVLFYEQGASWAWLLSGPIAGVGMAILQRTGGYGYDLWIPLIFLVLVSGFIAIQIKAARIHTSVELTRETLRQGTEIISIDEIVDIYPEASGSEVPKWQSARALGELTGVPRGRTGIGLKLTGKRVAQAWARRHRTLRAALQQLVEERTP
B2: MSMEG_0959 (over-expressed in M. smegmatis) (protein, UniProt A0QR24 1-164)
chain: MSGVPDASGAAPAGEVLFYEQGASWAWLLSGPIAGVGMAILQRTGGYGYDLWIPLIFLVLVSGFIAIQIKAARIHTSVELTRETLRQGTEIISIDEIVDIYPEASGSEVPKWQSARALGELTGVPRGRTGIGLKLTGKRVAQAWARRHRTLRAALQQLVEERTP

Legend:
[1] = biological target: His6-YrbE1B (M. smegmatis); assay: pull-down; His6-YrbE1A or His6-YrbE1B co-expressed in E. coli BL21(λDE3) with FLAG-tagged MceG (with or without the other YrbE1 protein) or with MSMEG_0959 alone; DDM membrane extract on TALON resin; SDS-PAGE, α-His/FLAG immunoblot (Fig. 3c, Supplementary Fig. 6a, b)
[2] = biological target: His6-YrbE1B (M. smegmatis); assay: pull-down; YrbE1A, MceG or FLAG-tagged MceG, and His6-YrbE1B (WT or GGSSG) co-expressed in E. coli BL21(λDE3) with or without FLAG-tagged MSMEG_0959 (WT or AGG3P); DDM membrane extract on TALON resin; SDS-PAGE, α-His/FLAG immunoblot (Fig. 4a, b)
[3] = biological target: His6-YrbE1B (M. smegmatis) (UniProt A0QNR1); assay: pull-down

| Binder | binding [1] | binding [2] | binding [3] |
| --- | --- | --- | --- |
| B1 | binds | binds | – |
| B2 | – | – | binds |
